The values below come from publication PMC8172852.

The chains behind the UniProt entries cited, without tags or fusion partners.
UniProt P00722: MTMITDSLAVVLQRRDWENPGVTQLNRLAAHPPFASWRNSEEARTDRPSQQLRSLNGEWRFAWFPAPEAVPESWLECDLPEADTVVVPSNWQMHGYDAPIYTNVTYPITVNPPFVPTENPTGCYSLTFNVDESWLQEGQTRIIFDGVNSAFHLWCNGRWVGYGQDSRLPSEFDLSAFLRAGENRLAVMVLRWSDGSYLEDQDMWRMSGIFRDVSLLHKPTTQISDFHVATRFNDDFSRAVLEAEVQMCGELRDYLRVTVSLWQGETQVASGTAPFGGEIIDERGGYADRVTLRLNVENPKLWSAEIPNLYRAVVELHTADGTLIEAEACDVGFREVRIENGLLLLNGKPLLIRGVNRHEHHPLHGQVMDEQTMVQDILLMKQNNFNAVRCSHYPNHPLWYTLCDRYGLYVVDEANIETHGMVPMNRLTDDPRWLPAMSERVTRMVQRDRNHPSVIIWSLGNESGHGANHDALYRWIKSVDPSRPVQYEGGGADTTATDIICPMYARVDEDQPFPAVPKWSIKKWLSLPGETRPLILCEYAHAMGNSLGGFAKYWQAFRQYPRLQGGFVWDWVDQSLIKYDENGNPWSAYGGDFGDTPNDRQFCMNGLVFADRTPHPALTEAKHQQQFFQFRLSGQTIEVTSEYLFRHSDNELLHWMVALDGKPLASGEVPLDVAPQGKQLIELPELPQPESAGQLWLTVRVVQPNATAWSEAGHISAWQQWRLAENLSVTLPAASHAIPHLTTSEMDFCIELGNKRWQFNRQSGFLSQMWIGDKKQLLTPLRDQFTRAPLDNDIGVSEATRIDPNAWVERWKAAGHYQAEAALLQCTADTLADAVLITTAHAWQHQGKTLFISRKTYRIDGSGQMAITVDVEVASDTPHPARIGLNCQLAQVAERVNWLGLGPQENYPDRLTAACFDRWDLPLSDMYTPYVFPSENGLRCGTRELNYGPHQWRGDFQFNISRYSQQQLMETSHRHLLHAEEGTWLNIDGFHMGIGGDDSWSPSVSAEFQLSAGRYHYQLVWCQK

Results are given in words; binding and its absence hold for the method and conditions named. Binding seen in cells or lysates may run through a third protein. Some binding calls cover weakened binding; strength is not graded here. Sequences can lack the tags named with a protein.

Assay [1] has as its target T1, HA-tagged Nprl3 (Drosophila) (UniProt Q9VUB4).
T1 sequence: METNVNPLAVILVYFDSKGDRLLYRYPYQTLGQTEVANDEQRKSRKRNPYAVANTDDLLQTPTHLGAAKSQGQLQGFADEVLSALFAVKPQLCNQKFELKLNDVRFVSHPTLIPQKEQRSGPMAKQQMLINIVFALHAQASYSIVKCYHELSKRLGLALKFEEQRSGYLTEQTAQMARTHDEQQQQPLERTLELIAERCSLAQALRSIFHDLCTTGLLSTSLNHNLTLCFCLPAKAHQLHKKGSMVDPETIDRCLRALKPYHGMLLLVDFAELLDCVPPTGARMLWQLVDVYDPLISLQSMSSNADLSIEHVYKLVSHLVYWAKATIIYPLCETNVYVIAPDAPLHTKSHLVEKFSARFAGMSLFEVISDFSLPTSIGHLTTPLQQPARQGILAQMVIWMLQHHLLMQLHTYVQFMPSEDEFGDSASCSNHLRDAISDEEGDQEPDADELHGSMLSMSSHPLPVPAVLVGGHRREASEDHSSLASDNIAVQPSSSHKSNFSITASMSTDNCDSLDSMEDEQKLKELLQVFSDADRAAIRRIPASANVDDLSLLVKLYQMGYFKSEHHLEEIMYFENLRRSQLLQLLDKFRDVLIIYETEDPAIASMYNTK
As to the kind of experiment: co-IP; S2 cells co-transfected, lysed in RIPA buffer with protease and phosphatase inhibitors; HA antibody-coated magnet beads 6 h at room temperature, washed six times; western blot; cells in Schneider's medium plus 10% FBS or amino-acid-free medium for 2 h. On the technique in general: Immunoblotting shows a protein as a band on a membrane.

The target of assay [2] is T2, HA-tagged Nprl2 (Drosophila) (UniProt Q9VXA0).
T2 sequence: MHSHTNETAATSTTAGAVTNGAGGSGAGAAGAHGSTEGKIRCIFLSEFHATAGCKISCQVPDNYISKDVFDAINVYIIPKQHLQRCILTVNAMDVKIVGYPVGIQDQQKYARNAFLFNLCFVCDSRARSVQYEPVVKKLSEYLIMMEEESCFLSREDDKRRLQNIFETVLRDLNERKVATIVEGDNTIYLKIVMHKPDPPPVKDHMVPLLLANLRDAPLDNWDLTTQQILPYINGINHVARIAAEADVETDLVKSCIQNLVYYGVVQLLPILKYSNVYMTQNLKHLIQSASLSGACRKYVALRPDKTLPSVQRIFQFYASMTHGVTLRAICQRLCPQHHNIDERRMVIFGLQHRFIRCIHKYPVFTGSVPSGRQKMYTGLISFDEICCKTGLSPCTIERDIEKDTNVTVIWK
Described as above.

For the molecule “V5-tagged LacZ (from UniProt P00722 1-1024)”, the binding result in assay [1] and in assay [2] was “no binding” throughout.

B1: V5-tagged FKBP39 (protein, UniProt P54397 1-357)
chain: MSMFWGLNMKPERKYSQTIIKSFHISGVALDKGQEAKLYLAAEKQEYIVATVTKAIPQVALDLNFSKGDRIMFYTAGDASVSLLGYLHDIDSEDDEDDDQMTIENLLNSKAIKNSKKSEDDEDENESGEEDEEDTDDDSQIIEEYESFLENGEEEDDDDVDEDNEESGEEDEQDSDDSEAEEEQPKAKVAKLSPGASAKKSGKEQNGVAKKEEAKQQQKKKEKPEAKKEQPKAKEPAKQQPASKDPRTITGGVKIVDQVVGKGEEAKQGKRVSVYYIGRLQSNNKTFDSLLKGKPFKFALGGGEVIKGWDVGVAGMKVGGKRVITCPPHMAYGARGAPPKIGPNSTLVFEVELKAVH
As for B1, the binding entry in assay [1] and in assay [2] was “binds” in each case.
